Measured values from the supplement of paper PMC12067093, “Discovery and optimisation of a covalent ligand for TRIM25 and its application to targeted protein ubiquitination” (Chemical Science, 2025).
This is one part of the list.

Assays:
[1] = molecular target: CLIC1_O00299_191_LHIVQVVCK (UniProt O00299); experiment: probe-labelled cysteine peptide fold change vs DMSO (competition) (log2 fold change); higher = less target engagement (more negative = stronger competition); details: THP-1, incubation time: 4 h
[2] = molecular target: CLIC1_O00299_191_LHIVQVVCKK (UniProt O00299); experiment: as above; details: THP-1, incubation time: 4 h
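Note: competitive profiling in live THP-1 cells: cysteine peptides tagged with an iodoacetamide desthiobiotin (IA-DTB) probe, intensity after compound treatment relative to DMSO-treated cells.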

Cc1cc(C(=O)N2CCCN(C(=O)CCl)CC2)ccc1-c1ccccc1 [compound 10]
probe-labelled cysteine peptide fold change ([1]; 10 µM): -0.167
probe-labelled cysteine peptide fold change ([1]; 50 µM): -0.106
probe-labelled cysteine peptide fold change ([2]; 10 µM): -0.224
probe-labelled cysteine peptide fold change ([2]; 50 µM): -0.78
